The target in the experiment is M. oryzae Ncs6 (Ncs6-GFP) (Magnaporthe oryzae) (UniProt G4MSW4). Nature of the experiment: co-IP.

Sequences of proteins named here, by UniProt entry; tags and fusion partners are left off. A change or cut given only in a name is not applied to a line headed by its entry.
UniProt G4MSW4: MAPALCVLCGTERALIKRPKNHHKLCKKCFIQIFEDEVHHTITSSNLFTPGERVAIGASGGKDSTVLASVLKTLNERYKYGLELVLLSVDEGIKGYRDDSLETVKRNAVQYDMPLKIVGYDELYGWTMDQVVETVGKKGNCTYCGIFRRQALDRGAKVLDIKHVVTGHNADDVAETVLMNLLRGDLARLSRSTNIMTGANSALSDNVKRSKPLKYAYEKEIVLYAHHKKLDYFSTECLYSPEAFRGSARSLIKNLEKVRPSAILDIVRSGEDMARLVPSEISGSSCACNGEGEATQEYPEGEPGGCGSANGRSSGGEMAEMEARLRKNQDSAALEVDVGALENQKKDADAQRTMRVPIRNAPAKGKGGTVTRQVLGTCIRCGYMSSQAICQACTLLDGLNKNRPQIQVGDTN
UniProt G4N7I9: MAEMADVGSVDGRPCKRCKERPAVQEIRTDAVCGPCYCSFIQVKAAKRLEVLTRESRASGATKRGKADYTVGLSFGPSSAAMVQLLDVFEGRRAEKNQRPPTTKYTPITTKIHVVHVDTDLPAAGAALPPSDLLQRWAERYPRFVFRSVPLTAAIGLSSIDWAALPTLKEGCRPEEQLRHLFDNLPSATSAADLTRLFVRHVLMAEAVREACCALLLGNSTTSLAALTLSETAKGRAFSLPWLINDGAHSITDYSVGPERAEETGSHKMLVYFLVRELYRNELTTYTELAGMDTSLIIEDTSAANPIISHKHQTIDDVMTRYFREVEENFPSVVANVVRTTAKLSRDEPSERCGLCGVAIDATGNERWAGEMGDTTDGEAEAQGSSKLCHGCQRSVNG

No constants are given. Whether binding was seen depends on the method and setting. In cells and extracts the contact can be indirect. A result given as binding can be weak or reduced; the word gives no strength.

From PMC11705076 come the findings set out here.

On to “M. oryzae Ncs2 (Ncs2-3xFlag) (from UniProt G4N7I9)”, for which the binding entry is “binds”.
